Data taken from publication PMC7206739.
No constants are given. Whether binding was seen depends on the method and setting. Binding seen in cells or lysates may run through a third protein. Some entries that bind do so weakly or less than the wild type. Tags and fused reporters may be left off the sequences shown.

Chains of the proteins cited; added tags and fusions are not shown.
UniProt Q9UNS2: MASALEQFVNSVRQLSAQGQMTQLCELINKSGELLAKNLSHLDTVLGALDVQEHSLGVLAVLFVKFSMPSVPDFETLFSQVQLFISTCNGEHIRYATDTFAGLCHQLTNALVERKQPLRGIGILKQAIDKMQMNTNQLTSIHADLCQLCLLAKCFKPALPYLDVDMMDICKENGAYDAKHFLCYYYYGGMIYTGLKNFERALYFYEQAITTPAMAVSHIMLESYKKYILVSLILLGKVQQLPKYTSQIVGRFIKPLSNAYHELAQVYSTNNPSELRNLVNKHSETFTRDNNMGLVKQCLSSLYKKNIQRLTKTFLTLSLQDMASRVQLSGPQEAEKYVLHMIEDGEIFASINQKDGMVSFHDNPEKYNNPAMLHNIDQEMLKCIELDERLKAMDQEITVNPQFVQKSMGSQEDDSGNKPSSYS

Target: T1, HA-tagged mouse NSMCE4A (mouse) (UniProt G3XA30)
T1 sequence: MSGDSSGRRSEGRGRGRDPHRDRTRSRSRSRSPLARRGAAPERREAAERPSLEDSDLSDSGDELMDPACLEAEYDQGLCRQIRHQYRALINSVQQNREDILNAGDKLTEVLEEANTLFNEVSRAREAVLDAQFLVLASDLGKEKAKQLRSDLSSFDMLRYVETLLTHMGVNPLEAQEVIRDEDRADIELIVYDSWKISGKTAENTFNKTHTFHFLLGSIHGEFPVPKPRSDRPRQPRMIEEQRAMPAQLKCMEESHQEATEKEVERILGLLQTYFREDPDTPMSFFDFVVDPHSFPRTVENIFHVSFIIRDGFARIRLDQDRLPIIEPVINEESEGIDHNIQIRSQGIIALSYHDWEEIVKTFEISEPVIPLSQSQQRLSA
Assay: co-IP; FLAG-tagged GPS1 and HA-tagged NSMCE4A expressed or co-expressed in HEK 293T cells; anti-FLAG or anti-HA antibody coupled to Dynabeads; lysis buffer with 100 mM NaCl, 1 mM DTT; western blot

## CSN3 (from UniProt Q9UNS2 1-423)
  binding: binds
